68 sequences from PubChem BioAssay AID1508600 (Functional Genomics Laboratory (NCATS/FGL), 2020) can be followed below.

Hit rate of the full screen: of about 53,000 sequences, about 3,700 (7%) were called active.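 How the source made its calls: active means gene knockdowns whose robust z-score for IL-1 alpha signal is at least 2 or at most -2, so actives lie on both sides; inactive means the rest.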 This is one part of the list.

This test in a line: Components of the Cytosolic LPS Sensing Pathway: Gene Identification via Genome-wide siRNA Screen.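 Further: robust z of the log signal after scaling to non-targeting control siRNA wells of the plate.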 The conditions noted are these: RAW264.7 macrophages, IL-1a HTRF, actives lie on both sides, screened at 100 nM (by protocol), cells primed 5 h with Pam3CSK4 first. The method, boiled down: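 Using IL-1a HTRF as read-out, the screen measured release from RAW264.7 cells after 48h siRNA knockdown (100 nM), 5 h Pam3CSK4 priming and 24 h cytosolic LipidA. Values were expressed relative to negative-control wells as robust z-scores.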
GAUGUACUUCUUUGUAGCUTT against Olfr398: the z-score is inactive: 1.96.

Regarding GGAAGAGCUCAUGAAGCUGTT against Foxi1, the z-score was inactive: -0.534.

Regarding GCUAGCAGGCUCAGUUUACTT against Mbd6, the z-score was inactive: 1.26.

With GGGUUAUAAUGAAAAUCCUTT against Cabp5, the z-score was inactive: -0.341.

Consider GGAGCUCGCCAAAAGGAAGTT against Cep19, for which the z-score is inactive: 1.97.

Consider GGACUAUGAGCAGAUGAAGTT against Calcb, for which the z-score is inactive: -0.217.

As to GGUUAAUGAGCUCUGUAAATT against Pknox1, the z-score is inactive: -0.508.

Regarding GGAAGUUCGCUUGGUACCGTT against Snrpb2, the z-score was inactive: -1.65.

As to GCGGAAGUAAGCUUGGAUGTT against Gatd1, the z-score is inactive: 0.505.

With GAUGCCUUUUAUGGGUGCATT against Olfr61, the z-score was inactive: 0.0552.

Consider GCGAGCUUAUAGGUUCGUGTT against Spop, for which the z-score is inactive: 0.89.

For GGGCAAAAUUUUACUAAUCTT against Ppp1r9b, the z-score is inactive: 0.98.

On to GCAAUAACCUGGUAGGCUCTT against Fxyd6, for which the z-score is inactive: -0.521.

On to CCUAAUGUAGUUGUCUCUUTT against Rbp3, for which the z-score is inactive: 0.534.

With GGAUGUCUGUCCUCUUAAATT against Igflr1, the z-score is inactive: 0.934.

Consider CCACGUCUUUGAGGUACCUTT against Lrrc52, for which the z-score is inactive: -0.0769.

For GCACUGUUUGUCAAGAAUGTT against Cdc42ep4, the z-score was inactive: -0.381.

Turning to GGGCCUUCAAAAAACUGCCTT against Eva1b, the z-score was inactive: 1.75.

Take UGAAGCUGUCCCGGACUAATT against Shf: the z-score was inactive: 0.731.

GGCCUCUGACUUUAAAGGCTT against Taf1d: the z-score is inactive: 1.09.

Turning to CCCUAGGUCAUAGCUUGACTT against Crtc1, the z-score is inactive: 1.58.

In the case of GCACAAGAUGUUCACACUATT against Siva1, the z-score is inactive: 0.255.

Consider GGCUCAGGUGUUCAAGAUATT against Cd109, for which the z-score was inactive: -1.66.

Regarding GGAGUACUAAGUCCAUUCCTT against Tuba1b, the z-score was inactive: -0.18.

Take GGGCUGUGGUUUCUAUGACTT against Tpra1: the z-score is inactive: -0.0792.

In the case of GGAUUUUGUUCUUACAGUUTT against Nfia, the z-score is active: 2.8.

Turning to GCUGCACGAUCGGAAUGGUTT against Ssh1, the z-score was inactive: -0.678.

For the sequence GGAAGAAAUGUACAAACUGTT against Spg21, the z-score was inactive: 1.63.

As for GGUGACUCUGAUCAAUUUCTT against Fkbpl, the z-score was inactive: -1.

Regarding GGAAUUCUGACGUGAAGAATT against Olfr13, the z-score is inactive: -0.987.

Take CGAGAAACCACAAUUCUCUTT against Arl11: the z-score was inactive: -0.614.

On to CGCUCAGGUCACCAAAAAGTT against Acaca, for which the z-score was inactive: -0.48.

On to CGACAAUGAAUUCAAUGGGTT against Slc48a1, for which the z-score is inactive: -0.342.

In the case of GCCAGUGUUCGGAGAAGAUTT against Pitx1, the z-score is inactive: 0.759.

Regarding GGCCUAGUGCCUUUAUUUGTT against Ptgfr, the z-score is inactive: 1.01.

For GGGCAGAAAACAACUGGAATT against Pappa, the z-score was inactive: -1.1.

As for GGCCAACUUGAGAUUGUCUTT against Dcaf7, the z-score is inactive: 0.766.

With GGUAGUGAUCCUCAAAAAATT against Myc, the z-score was inactive: 1.84.

Regarding GGCCUAUCAAAAUUCAGUUTT against Rbm7, the z-score was inactive: 1.17.

Turning to GGCACCUGGAGUUUUAGAGTT against Ltb4r1, the z-score is inactive: 0.385.

In the case of GGGUUUCCUGGAUUCUCAUTT against Arap3, the z-score was inactive: -1.73.

On to GGCUGAUCCUGUAUUCUUATT against Sertad3, for which the z-score was inactive: 0.757.

CGAUAUGAUGUAUUCCAUCTT against Fktn: the z-score is inactive: 0.206.

In the case of GGAGAGUGCUGUGAAGCCATT against Vegfb, the z-score was inactive: -0.943.

Take GGAGCUGAACAAGAAAUUGTT against Polr3h: the z-score is inactive: 0.33.

For GCACUUUUGUUCACUUAAATT against Fmo1, the z-score was inactive: -0.269.

For GGAUUCUGAGAAAUCAAGATT against Serpinb12, the z-score was inactive: -0.376.

Take GGAGAAGAAAAACCACUACTT against Cacng8: the z-score is inactive: -1.92.

For the sequence CGCACAAGUGCUUGAGUUATT against Ccdc151, the z-score is inactive: 1.03.

Turning to GCUGGUGUCUCAGAUCUCATT against Hbq1b, the z-score was inactive: -0.566.

Consider GCAUACAACUGUUCAUAGATT against Nsrp1, for which the z-score was inactive: -0.476.

Turning to CCCAUCCCUGUAAAAAUUCTT against Limd2, the z-score was inactive: -1.19.

Turning to GGAGGUGGUUCACUAAAAATT against Ube2dnl1, the z-score was inactive: 0.272.

With GGUACCUUCAUCUUGGUGGTT against Olfr699, the z-score is inactive: -0.017.

As to GGUGGAAUCACAAAAACGCTT against Psmg2, the z-score is inactive: -1.07.

As for GGACAUGCAAGACAUGGAUTT against Anapc15, the z-score is inactive: 1.46.

In the case of GGAAGUAUGUGUUUCUCAGTT against Prr9, the z-score is active: -2.41.

Turning to GUCUUUCUGUUACCUUGGCTT against Adam20, the z-score was inactive: -1.09.

In the case of CCUAUUGAAAAGCCAAACUTT against Lypd11, the z-score is inactive: -0.651.

For the sequence GUAACUCAGCAUUUGAUACTT against Krtap19-3, the z-score was inactive: -0.475.

Regarding GGGAUAAUAAAGAAGAAGUTT against Dach2, the z-score is inactive: -0.251.

Turning to GGACUCAAGAUUUCAGAAUTT against Btbd7, the z-score was inactive: 0.219.

Turning to “CCCUCUUUAUCAAAGCCAATT against 2310067E19Rik”, the z-score is inactive: -0.277.

GGACUUACAAAAAUUCCAGTT against Fcer2a: the z-score is inactive: 0.576.

GGUGGAAGCAAGCUGUUCUTT against Trim39: the z-score was inactive: 1.14.

For the sequence CCUAGGACAUUUAUUAACATT against Casc3, the z-score is inactive: -0.275.

With GCACACUUACGUUCACAUATT against Timm8a2, the z-score was inactive: 0.723.

As to GGUAAUUGAGCUGAGUUCUTT against Rad54l2, the z-score is inactive: 0.479.
